Reference: US20130243802A1
Results are given in words; binding and its absence hold for the method and conditions named. Some results given as binding are weak or reduced against the parent protein; the word gives no strength. Where a sequence is shown, tags or fusion partners need not be part of it.

Key:
[1] = target: canine glycoprotein 96, endoplasmic reticulum isoform of HSP90 (canine) (UniProt P41148); assay: CHIEF gel
[2] = target: canine glycoprotein 96, endoplasmic reticulum isoform of HSP90 (canine) (UniProt P41148); assay: CHIEF gel, 1 µg of recombinant HSP against 15 µg of peptide

PSQGKGRGLSLSRFSWGAPSQASSGQARMFPNAPYL [MBP100-117_WT1 117-134]
binding [1]: binds | binding [2]: binds
